In patent publication US8378085B2, “Bacterial ATP synthase binding domain” (priority 2004, dated 2013):
≈ marks a conversion by molar mass, not a printed value.

Tested on: M. tuberculosis
Test: microbe, parasite or virus in culture
Assay type: cell-based
Conditions: Mycobacterium tuberculosis, read-out: median MIC

CO[C@H]1/C=C/O[C@@]2(C)Oc3c(C)c(O)c4c(O)c(c(/C=N/N5CCN(C)CC5)c(O)c4c3C2=O)NC(=O)/C(C)=C\C=C\[C@H](C)[C@H](O)[C@@H](C)[C@@H](O)[C@@H](C)[C@H](OC(C)=O)[C@@H]1C [rifampin, reference compound]
MIC: 1 µg/mL (≈ 1.22 µM)
